# Data as given in PubChem BioAssay AID1508600 (Functional Genomics Laboratory (NCATS/FGL), 2020).
# Hit rate of the full screen: of about 53,000 sequences, about 3,700 (7%) were called active.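 How the source made its calls: active means gene knockdowns whose robust z-score for IL-1 alpha signal is at least 2 or at most -2, so actives lie on both sides; inactive means the rest.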 This is one part of the list.
# Experiment: Components of the Cytosolic LPS Sensing Pathway: Gene Identification via Genome-wide siRNA Screen;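 further: robust z of the log signal after scaling to non-targeting control siRNA wells of the plate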
# Settings: RAW264.7 macrophages, IL-1a HTRF, actives lie on both sides, screened at 100 nM (by protocol), cells primed 5 h with Pam3CSK4 first
# In short: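 Mouse macrophage line RAW264.7 is transfected with siRNA (100 nM final), grown 48h, primed with TLR ligand Pam3CSK4 5 h and given intracellular LipidA 24 h. IL-1a in supernatant is read by HTRF and viability by luminescence.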
row,Sequence,z-score
1,CGGCCAUAUAAUUUUGAAUTT against Tbx20,inactive: 0.233
2,CCUCUCCAUCUUUGACUUATT against Olfr961,inactive: -0.655
3,GGCUUCCAUUACCAUGAUGTT against Olfr381,inactive: -0.318
4,CCAGUUCCUUUGUAGGCAATT against Ctf1,inactive: 0.171
5,CCUAUGAAUGAUUUUGGUGTT against Pcdhb7,inactive: -0.0606
6,GCAAGACUAAGACUAUCUCTT against Olfr1340,inactive: 0.221
7,GGCACUCAGUUCUUACCAGTT against Paxx,inactive: -1.09
8,GCCUAGUGAAUACAUCACUTT against Cyp4f18,inactive: 0.394
9,GGGACUUAAUUUAUAGGGATT against Tagln2,inactive: 0.84
10,GGAGUCCAAAUUCUUGGGUTT against Ik,inactive: 0.961
11,UAUGGGCCCUUGUCCUCUGTT against Ffar1,inactive: -1.28
12,GGAAGAUACCAAAAUCUUATT against Got1l1,inactive: 1.27
13,GGGUUCUCUUGCCUACACATT against Ltv1,inactive: 0.294
14,CCUUAAUUUCGACAUGACUTT against Zfand5,inactive: -0.32
15,GGUUCAUUGUCUGAGAUCATT against Thumpd3,inactive: 0.998
16,GGAGACAUUGCUAUAUAUGTT against Hmgcs1,inactive: -0.207
17,CGUAAUUGUUCCAUGUAGUTT against Fam72a,inactive: 0.917
18,GGUGCUAGAUGAGCUGACCTT against Krt16,inactive: -0.123
19,GGAUUGUAAUAAUGGAGCCTT against H2-M10.4,active: 2.94
20,GUCCGUCUCGGAGAAAUGUTT against Ccdc106,active: -2.28
21,GGGACAGAACUUAAAUGUATT against Mup4,inactive: -0.24
22,GCAUCUAUCGGAUUCUUAUTT against Ddx49,inactive: -0.856

row,Sequence,z-score
1,GAAAAAGGGUGACAAGACUTT against Nppc,inactive: 0.276
2,CCGUCAUGACUUUGUUCUATT against Plcg1,inactive: -0.205
3,GGCAAGAAGUGUGAUGAACTT against Kansl3,active: -2.81
4,CGGUUAAAAGCCCUCAGCATT against Olfr592,inactive: -1.41
5,CCUCGUGUUACUUUUACCCTT against Olfr13,inactive: -1.51
6,GGAUAUCCACAGAAAUCAATT against Dram1,inactive: -0.496
7,GGAUUGCCCUGUUGUGGUGTT against Snx17,inactive: -0.227
8,GGAUGUAGAUGUUGGUUUUTT against Kcnj14,active: 2.52
9,GGGAACAGAAAUUAAAGGATT against Fanca,inactive: 0.0745
10,CCAGUUCACCAUAUGCUGCTT against Tdpoz3,inactive: 1.08
11,GUCCUGAAGAAGCUCAAGATT against Cartpt,inactive: -0.513
12,CGGAGGAGAAAUCUUGUAATT against Zfp273,inactive: -1.42
13,GCAUGUCCAAAGUGGUACCTT against Tecrl,inactive: 0.81
14,GCUUAGUCUUAUGUAGCUCTT against Vmac,inactive: -0.00402
15,GCUUGGAAGACUGUAAACUTT against Lpcat2b,inactive: 1.02
16,GGUCCUCAAAUGAAAAAGATT against Vps37d,inactive: -0.347
17,CAUUGGAAAGAAUGGCCUUTT against Olfr890,inactive: -0.231
18,CCCUAAGUUACCUCUUUCGTT against Ndufs8,inactive: 0.017
19,GGCUGAGAUCUGAAAUUGATT against Krt5,inactive: 0.592
20,CGAUACUGUGCAAAGAAUCTT against Nepro,inactive: 0.231
21,GGAACUCAGGGAAUAUAUUTT against Mtnr1a,inactive: -0.356
22,CCCAAUUAAUGAUCACCCATT against Tlcd2,active: -3.04

# Four successive records out of the list so far:
row,Sequence,z-score
11,GUCCUGAAGAAGCUCAAGATT against Cartpt,inactive: -0.513
12,CGGAGGAGAAAUCUUGUAATT against Zfp273,inactive: -1.42
13,GCAUGUCCAAAGUGGUACCTT against Tecrl,inactive: 0.81
14,GCUUAGUCUUAUGUAGCUCTT against Vmac,inactive: -0.00402

# Additional records:

row,Sequence,z-score
1,GGCUAAUGUAGUAAACCACTT against Olfr965,inactive: 0.1
2,GGAGAGCUGGUGUUUUAGATT against Tnfrsf17,active: 2.74
3,CCCUCAAAGACCUGUACAUTT against Gm266,active: 2.78
4,GGAAUGUGCCUAAGUUUGGTT against Ufc1,inactive: 1.08
5,GGCAAUAAAUAUCCAGAAATT against Crygn,inactive: 1.02
6,GGUAUGAUGUUUGUUUUGCTT against Tshz3,inactive: 0.277
7,CCGUUUUGAGAUCUGUUAATT against 4930465K10Rik,inactive: -1.82
8,GGUCUGCUCAAUGCUAUCATT against Olfr918,inactive: -1.47
9,GGUGAAGCUUCGAAUGACUTT against Slc25a10,inactive: -0.1
10,CGAAGUUGUUGAGAACUCATT against Pcdhb18,inactive: 0.325
11,GCAUAAGGUGGUUAAUGACTT against Rps15a,inactive: 0.582
12,GGCCAGCAUCCAUGUUUUATT against Cacng1,inactive: 1.41
13,GGACCAGUUCCUUAAGUUUTT against Dpy19l1,inactive: 0.872
14,GGCGAAGGUGUAGAAUCUCTT against Samd12,active: 2.48
15,GCAUAGGCUAGGUUAUUAUTT against Lep,inactive: 0.839
16,GGCUUCUAAGCACAAAGUATT against Ppp2r5a,inactive: 1.14
17,GCCUUGUGGUAUUUGAUCGTT against Fbxw9,inactive: 0.954
18,CGGGUAUGUGACUGUCAGUTT against Snf8,inactive: -0.907
19,GGAAAGCACCCAAGAAAUGTT against Gspt1,inactive: -0.915
20,GGUUUUCACCAUGCAUCAGTT against Mterf4,inactive: -0.66
21,GCAGUCGAAGCACUAAAAATT against Dnaaf2,inactive: 0.412
22,GGCUUUAUUUAUCAGGAUCTT against Lsamp,inactive: 1.17

# Some of the entries above in another layout:
row | Sequence | z-score
13 | GGACCAGUUCCUUAAGUUUTT against Dpy19l1 | inactive: 0.872
14 | GGCGAAGGUGUAGAAUCUCTT against Samd12 | active: 2.48
15 | GCAUAGGCUAGGUUAUUAUTT against Lep | inactive: 0.839
16 | GGCUUCUAAGCACAAAGUATT against Ppp2r5a | inactive: 1.14
17 | GCCUUGUGGUAUUUGAUCGTT against Fbxw9 | inactive: 0.954

# Remaining list, next part:

row,Sequence,z-score
1,GGCUAAAGAUCGCAUUCAGTT against Zdhhc6,inactive: 0.596
2,GGAACUGUUUCUCUUUCCUTT against Rad9a,inactive: -1.45
3,CGCAUUCAAUUCCUUUCAATT against Aass,inactive: -0.232
4,GGACAUUUUUGACAUUGAATT against Masp1,inactive: -0.527
5,GGAAUGACAAGCAACCAGCTT against Foxp1,inactive: 0.539
6,GGUCAGCAAAAGAGAUUCUTT against Zmym5,inactive: -0.0742
7,GGUCCUGAGUGUCAAGUUUTT against Lrrc8c,inactive: -0.346
8,GGUUGUGUUAUUCAGAUCUTT against Olfr1316,inactive: 0.152
9,CCAUUCUGUGAUUACUGAGTT against Olfr787,inactive: -0.0288
10,GGAUGAACAUUAAACUUCGTT against Ctsb,inactive: 0.101
11,GGGAAAAGUGGGAGAUUUUTT against Rpn1,inactive: 0.389
12,GGCUCUCAAUGCCUACUUUTT against Pou6f1,inactive: 1.86
13,GGAUAUGAGCGGUAUUUUGTT against Trim34a,inactive: -0.179
14,GCCUAGGUAGCUGUGUUAUTT against Gucy2f,inactive: -0.00747
15,GCAAGUGCGACUGUAUCUGTT against Gdpd2,active: -2.2
16,CCAAUGUCUACUCAGAUCUTT against Rab11fip4,inactive: 0.815
17,GGACUUUGUGGACAAAAUUTT against Ift20,inactive: -1.64
18,GCUUGACACAAGAGAUUGATT against Krt79,inactive: -0.156
19,GGGAUGGACUUUUGACUGATT against Vmn1r219,inactive: -0.0459
20,GCUUUCCGGAAUACGAGCUTT against Snapc3,inactive: -0.638
21,GGACAAAGUGACUUCUUGUTT against Gng7,inactive: -0.19
22,CCUCAAGAUAGGUUUCUACTT against Mmp23,inactive: 0.613

row,Sequence,z-score
1,CCAAGUGGAUCGAAGCCCATT against Endou,inactive: -1.42
2,CGCGGACAUCUAUGACAAATT against Phpt1,inactive: 1.72
3,GGUUGAGGUUGGUAAAAAUTT against Havcr2,inactive: 0.153
4,GCGGAAGUUAGAGUCGCUGTT against Bend3,inactive: 0.325
5,GGAGAAGAAGAUUUUUGGCTT against Gpr108,inactive: -0.684
6,GGAAUGCAGAAGAUUGUUATT against Olfr745,inactive: 0.825
7,CGGUGCUCUUACAUAGCAGTT against Appbp2,inactive: -0.292
8,GCAAAAUUUACUGUUAGACTT against Ccdc150,inactive: -0.123
9,GGAUUCGAGUGGUAACAAGTT against Nmral1,inactive: 0.617
10,CCACCCUCUCAUUACAGACTT against Atp13a4,inactive: -0.487
11,GGAGAAUGCUUUCAUUGUATT against Gm9734,inactive: 0.159
12,GCAGAAUGGCCUCUUCUACTT against C1qtnf2,inactive: 0.197
13,GGUAAAGUGAACUGUACCUTT against Vstm5,inactive: 0.843
14,GGUGUGAUAAUGAAACCAATT against Slc2a13,inactive: -0.62
15,GGAGAAUUAGAAUAUGCUATT against Pithd1,inactive: 0.0709
16,GGUGGUGGAAUGCUAAAAATT against Gys1,active: 2.29
17,GGCCUUCAUUGAGAUGAACTT against Ptbp1,inactive: -1.17
18,GCGAUUAGGCAAGUUCCAATT against Lyrm2,inactive: 0.674
19,GGCCUUGAAUGAGCAUCAUTT against Krr1,inactive: 0.548
